Data taken from PubChem BioAssay AID274 (DTP/NCI, 2004).
The list does not hold the whole screen: it is rich in T/C values a quarter to a half above the control, in often repeated tests (any T/C) and in doses without a T/C. Further doses and runs are listed elsewhere. T/C is the treated group as % of the vehicle group. Some entries give survivors of the animals treated and no T/C: the source files T/C as zero there, which appears to mark a toxic dose or a test without result, not a measured value. Some survivor counts are full or nearly so, which does not show that the dose was tolerated: survival well below the control is almost never listed, so the zero probably covers shortened survival too. Counts of survivors are from the toxicity check (mostly the fifth day) where no day follows; animals may have died later. Schedule codes are those of the source, taken here to give the interval after Q, in days (D) or hours (H), and the number of doses after X. Some entries were tested several times; the values are given in rising order. Where survival is the endpoint, this PubChem deposit counts one and a half times the control or more as active, and values a quarter to a half above the control carry no call in these data; other NCI protocols may use other cut-offs. Some T/C values carry the count of animals alive at the toxicity check (mostly the fifth day); without a count, all were alive then.

Test system: BDF1 mice, Lewis lung carcinoma iv, survival T/C
Assay: NCI In Vivo Anticancer Drug Screen. Data for tumor model Lewis Lung Carcinoma (intravenous) in B6D2F1 (BDF1) mice
Conditions: T/C endpoint: median survival time, higher T/C = longer survival
Description: The antitumor activity of compounds was measured in mice bearing transplantable tumors. Survival or tumor size were measured and the results are expressed as the measurement made in the treated group (T) divided by the measurement made in the vehicle treated control group (C). The tumor model used in this assay is Lewis Lung Carcinoma (intravenous) in B6D2F1 (BDF1) mice

[1] = dose: 200.0 mg/kg/injection, schedule: Q01DX009 (ip), vehicle: Klucel (hydroxypropylcellulose) (HPC)
[2] = dose: 6.25 mg/kg/injection, schedule: Q01DX009 (ip), vehicle: saline with Tween-80
[3] = dose: 25.0 mg/kg/injection, schedule: Q01DX009 (ip), vehicle: saline with Tween-80
[4] = dose: 50.0 mg/kg/injection, schedule: Q01DX009 (ip), vehicle: saline with Tween-80
[5] = dose: 16.0 mg/kg/injection, schedule: Q01DX009 (ip), vehicle: saline
[6] = dose: 32.0 mg/kg/injection, schedule: Q01DX009 (ip), vehicle: saline
[7] = dose: 64.0 mg/kg/injection, schedule: Q01DX009 (ip), vehicle: saline
[8] = dose: 12.5 mg/kg/injection, schedule: Q01DX009 (ip), vehicle: saline with Tween-80
[9] = dose: 100.0 mg/kg/injection, schedule: Q01DX009 (ip), vehicle: saline
[10] = dose: 200.0 mg/kg/injection, schedule: Q01DX009 (ip), vehicle: saline
[11] = dose: 50.0 mg/kg/injection, schedule: Q01DX009 (ip), vehicle: saline

`C=CCNc1ccc(C)cc1` was tested, and the survivor count (dose: 12.5 mg/kg/injection, schedule: Q01DX009 (ip), vehicle: Klucel (hydroxypropylcellulose) (HPC)) was 10 of 10, the survivor count (dose: 25.0 mg/kg/injection, schedule: Q01DX009 (ip), vehicle: Klucel (hydroxypropylcellulose) (HPC)) was 10 of 10 and the survivor count (dose: 50.0 mg/kg/injection, schedule: Q01DX009 (ip), vehicle: Klucel (hydroxypropylcellulose) (HPC)) was 10 of 10. The survivor count [1] was 8 of 10.
`OCCN1CCN(CC/C=C2/c3ccccc3Sc3ccc(C(F)(F)F)cc32)CC1` was tested, and the survivor count [2] was 10 of 10, the survivor count [3] was 5 of 10 and the survivor count [4] was 0 of 10.
In the case of `Nc1nc([Se])c2ncn(C3OC(CO)C(O)C3O)c2n1` (configuration not stated), the survivor count [5] is reported as 10 of 10, the survivor count [6] is reported as 10 of 10 and the survivor count [7] is reported as 8 of 10.
In the case of `Cn1cnc([N+](=O)[O-])c1Sc1nc(N)nc2c1ncn2C1OC(CO)C(O)C1O` (configuration not stated), the survivor count [2] is reported as 10 of 10, the survivor count [8] is reported as 10 of 10 and the survivor count (dose: 12.5 mg/kg/injection, schedule: Q01DX009 (ip), vehicle: suspension in saline) is reported as 10 of 10. For the same compound, the survivor count [3] was 10 of 10, the survivor count (dose: 25.0 mg/kg/injection, schedule: Q01DX009 (ip), vehicle: suspension in saline) was 10 of 10 and the survivor count (dose: 50.0 mg/kg/injection, schedule: Q01DX009 (ip), vehicle: suspension in saline) was 10 of 10.
`CC(C)CC(NC(=O)CF)C(=O)O` (configuration not stated) was tested, and the survivor count (dose: 10.0 mg/kg/injection, schedule: Q01DX009 (ip), vehicle: saline) was 3 of 10.
For `Nc1cc(Cl)c2[nH]cnc2n1`, the survivor count (dose: 200.0 mg/kg/injection, schedule: Q01DX009 (ip), vehicle: distilled water + Tween-80) was 10 of 10.
For `N/C(=N\O)c1cn(C2OC(CO)C(O)C2O)c2ncnc(N)c12` (configuration not stated), the T/C (dose: 4.0 mg/kg/injection, schedule: Q01DX009 (ip), vehicle: saline) was 137 % of control, the survivor count (dose: 8.0 mg/kg/injection, schedule: Q01DX009 (ip), vehicle: saline) was 10 of 10 and the survivor count [5] was 9 of 10. The survivor count [6] was 0 of 10, the survivor count [7] was 0 of 10 and the survivor count (dose: 128.0 mg/kg/injection, schedule: Q01DX009 (ip), vehicle: saline) was 0 of 10.
`CCN1C[C@]2(COC)[C@H](O)C[C@H](OC)[C@]34C1[C@H]([C@H](OC)[C@H]23)[C@]1(OC(C)=O)[C@H]2[C@@H](OC(=O)c3ccccc3)[C@](O)(C[C@H]24)[C@@H](OC)[C@@H]1O` was tested, and the T/C (dose: 0.13 mg/kg/injection, schedule: Q01DX009 (ip), vehicle: Klucel (hydroxypropylcellulose) (HPC)) was 126 % of control, the survivor count (dose: 0.25 mg/kg/injection, schedule: Q01DX009 (ip), vehicle: Klucel (hydroxypropylcellulose) (HPC)) was 1 of 10 and 8 of 10 and the survivor count (dose: 0.5 mg/kg/injection, schedule: Q01DX009 (ip), vehicle: Klucel (hydroxypropylcellulose) (HPC)) was 3 of 10. The survivor count (dose: 1.0 mg/kg/injection, schedule: Q01DX009 (ip), vehicle: Klucel (hydroxypropylcellulose) (HPC)) was 0 of 10.
`S=c1c2[nH]cnc2ncn1CCSC1=NC=NC2=NC=NC21` (configuration not stated) was tested, and the survivor count [9] was 3 of 10, the survivor count [10] was 0 of 10 and the survivor count (dose: 400.0 mg/kg/injection, schedule: Q01DX009 (ip), vehicle: saline) was 0 of 10.
`CC(=O)N(C)c1ccc(Nc2cc(C)[nH]c3ccc4ncnc4c23)cc1` was tested, and the survivor count [9] was 10 of 10 and the survivor count [10] was 0 of 10.
For `Cc1ccc2c(c1)C(=O)N(CC[P+](c1ccccc1)(c1ccccc1)c1ccccc1)C2=O`, the survivor count (dose: 25.0 mg/kg/injection, schedule: Q09DX009 (ip), vehicle: water) was 3 of 10.
For `CC[As](=O)(O)CC`, the survivor count [11] was 10 of 10.
With `O=C(Nc1ccc(N=C=S)cc1Cl)c1cc(Cl)cc(Cl)c1O` the survivor count (dose: 100.0 mg/kg/injection, schedule: Q01DX009 (ip), vehicle: Klucel (hydroxypropylcellulose) (HPC)) was 7 of 10 and the survivor count [1] was 5 of 10.
`CC1(CO)C(O)CCC2(C)C1CCC1CC3CC12CCC3(O)CO` (configuration not stated) was tested, and the survivor count (dose: 18.75 mg/kg/injection, schedule: Q01DX009 (ip), vehicle: saline with Tween-80) was 10 of 10, the survivor count (dose: 37.5 mg/kg/injection, schedule: Q01DX009 (ip), vehicle: saline with Tween-80) was 10 of 10 and the T/C [4] was 125 % of control [9 of 10 alive]. The survivor count (dose: 75.0 mg/kg/injection, schedule: Q01DX009 (ip), vehicle: saline with Tween-80) was 10 of 10, the T/C (dose: 100.0 mg/kg/injection, schedule: Q01DX009 (ip), vehicle: saline with Tween-80) was 126 % of control and the survivor count (dose: 150.0 mg/kg/injection, schedule: Q01DX009 (ip), vehicle: saline with Tween-80) was 9 of 10.
With `O=C(O)/C=C/C(=O)Nc1ccc(Cl)c(Cl)c1` the survivor count [1] was 5 of 10 and the survivor count (dose: 400.0 mg/kg/injection, schedule: Q01DX009 (ip), vehicle: Klucel (hydroxypropylcellulose) (HPC)) was 1 of 10.
In the case of `CSc1ccc2c(c1)C(N1CCN(C)CC1)Cc1ccccc1S2` (configuration not stated), the survivor count (dose: 3.12 mg/kg/injection, schedule: Q01DX009 (ip), vehicle: saline with Tween-80) is reported as 6 of 10, the survivor count [2] is reported as 8 of 10 and the survivor count [8] is reported as 2 of 10. For the same compound, the survivor count [3] was 0 of 10 and the survivor count [4] was 0 of 10.
`CCOC(=O)c1c[nH]c2oc(/C=N/N3CC(CN4CCOCC4)OC3=O)cc2c1=O` (configuration not stated) was tested, and the T/C (dose: 200.0 mg/kg/injection, schedule: Q01DX009 (ip), vehicle: suspension in saline) was 140 % of control.
`O=NN(CCCl)C(=O)NC1CCC(=O)NC1=O` (configuration not stated) was tested, and the survivor count (dose: 16.0 mg/kg/injection, schedule: Q01DX009 (ip), vehicle: saline with Tween-80) was 9 of 10.
`CC1=C(/C=C/C(C)=C/C=C/C(C)=C/C=O)C(C)(C)CCC1` was tested, and the survivor count (dose: 32.0 mg/kg/injection, schedule: Q01DX005 (ip), vehicle: saline with Tween-80) was 10 of 10 and the survivor count (dose: 128.0 mg/kg/injection, schedule: Q01DX005 (ip), vehicle: saline with Tween-80) was 1 of 11 and 10 of 10.
`C1OC1CO[C@@H]1CO[C@H]2[C@@H]1OC[C@H]2OCC1CO1` (some centres not stated) was tested, and the T/C [10] was 146 % of control.
`Nc1nc(=S)c2ncn(C3OC(CO)CC3O)c2[nH]1` (configuration not stated) was tested, and the survivor count (dose: 40.0 mg/kg/injection, schedule: Q01DX009 (ip), vehicle: saline) was 10 of 10.
For `O=C(NO)c1ccc(O)c(O)c1`, the T/C (dose: 400.0 mg/kg/injection, schedule: Q01DX009 (ip), vehicle: water) was 131 % of control, the survivor count (dose: 600.0 mg/kg/injection, schedule: Q01DX009 (ip), vehicle: suspension in saline) was 6 of 10 and the survivor count (dose: 800.0 mg/kg/injection, schedule: Q01DX009 (ip), vehicle: water) was 4 of 10.
With `NC(=O)c1ncn2c(=O)n(CCCl)nnc12` the survivor count [11] was 10 of 10.
With `Nc1nc(=S)c2ncn(C3OC(COC(=O)c4ccc(Cl)cc4)C(OC(=O)c4ccc(Cl)cc4)C3OC(=O)c3ccc(Cl)cc3)c2[nH]1` (configuration not stated) the T/C (dose: 75.0 mg/kg/injection, schedule: Q01DX009 (ip), vehicle: Klucel (hydroxypropylcellulose) (HPC)) was 125 % of control.
With `CC1=C(/C=C/C(C)=C/C=C/C(C)=C/C(=O)O)C(C)(C)CCC1` the T/C (dose: 64.0 mg/kg/injection, schedule: Q01DX005 (ip), vehicle: saline with Tween-80) was 140 % of control.
